Source: the supplement of paper PMC6411743
± gives the standard deviation of the averaged measurements. The entries are a selection whose mix differs from that of the whole data set.

By UniProt entry, the sequences of proteins in these tests, tags left out. Where a name states a change or a piece, a line headed by the entry shows the natural chain unless it says otherwise.
UniProt Q86UE8, whole entry, looked up: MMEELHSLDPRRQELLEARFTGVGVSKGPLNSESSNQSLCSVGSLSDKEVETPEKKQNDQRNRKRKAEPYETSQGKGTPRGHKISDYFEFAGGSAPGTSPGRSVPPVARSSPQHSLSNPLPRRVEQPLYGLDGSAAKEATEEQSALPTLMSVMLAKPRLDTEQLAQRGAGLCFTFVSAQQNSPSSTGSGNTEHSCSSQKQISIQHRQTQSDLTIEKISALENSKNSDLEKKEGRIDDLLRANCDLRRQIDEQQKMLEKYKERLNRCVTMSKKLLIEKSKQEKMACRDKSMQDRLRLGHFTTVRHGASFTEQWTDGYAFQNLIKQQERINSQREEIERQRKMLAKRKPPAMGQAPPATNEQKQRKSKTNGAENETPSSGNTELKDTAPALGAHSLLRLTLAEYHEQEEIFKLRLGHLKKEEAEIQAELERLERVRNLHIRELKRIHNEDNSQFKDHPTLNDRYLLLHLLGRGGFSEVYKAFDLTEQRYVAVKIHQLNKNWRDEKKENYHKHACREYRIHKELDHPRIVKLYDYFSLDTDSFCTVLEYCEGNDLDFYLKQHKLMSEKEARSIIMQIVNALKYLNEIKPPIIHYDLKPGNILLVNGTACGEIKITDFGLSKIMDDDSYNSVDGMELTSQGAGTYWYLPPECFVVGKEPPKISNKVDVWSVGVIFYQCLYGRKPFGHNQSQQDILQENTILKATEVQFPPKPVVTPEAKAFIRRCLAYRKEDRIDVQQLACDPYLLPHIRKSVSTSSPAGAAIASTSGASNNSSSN
UniProt Q86X55: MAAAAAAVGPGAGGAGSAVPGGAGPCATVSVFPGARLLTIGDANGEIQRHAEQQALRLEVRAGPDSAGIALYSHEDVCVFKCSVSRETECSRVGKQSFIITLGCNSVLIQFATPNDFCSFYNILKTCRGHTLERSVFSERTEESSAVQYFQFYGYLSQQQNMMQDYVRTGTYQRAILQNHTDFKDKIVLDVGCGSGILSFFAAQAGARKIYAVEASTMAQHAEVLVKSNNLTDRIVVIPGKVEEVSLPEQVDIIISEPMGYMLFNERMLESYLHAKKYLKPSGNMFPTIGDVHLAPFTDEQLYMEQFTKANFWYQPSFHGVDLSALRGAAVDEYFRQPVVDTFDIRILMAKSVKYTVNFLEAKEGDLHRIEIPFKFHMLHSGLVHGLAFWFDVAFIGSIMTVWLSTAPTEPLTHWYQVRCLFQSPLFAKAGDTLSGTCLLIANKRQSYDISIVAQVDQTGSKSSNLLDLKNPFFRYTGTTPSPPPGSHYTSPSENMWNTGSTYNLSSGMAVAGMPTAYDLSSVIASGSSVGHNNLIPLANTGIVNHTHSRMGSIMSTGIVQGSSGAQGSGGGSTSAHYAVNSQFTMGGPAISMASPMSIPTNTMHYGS
UniProt Q7Z3T8: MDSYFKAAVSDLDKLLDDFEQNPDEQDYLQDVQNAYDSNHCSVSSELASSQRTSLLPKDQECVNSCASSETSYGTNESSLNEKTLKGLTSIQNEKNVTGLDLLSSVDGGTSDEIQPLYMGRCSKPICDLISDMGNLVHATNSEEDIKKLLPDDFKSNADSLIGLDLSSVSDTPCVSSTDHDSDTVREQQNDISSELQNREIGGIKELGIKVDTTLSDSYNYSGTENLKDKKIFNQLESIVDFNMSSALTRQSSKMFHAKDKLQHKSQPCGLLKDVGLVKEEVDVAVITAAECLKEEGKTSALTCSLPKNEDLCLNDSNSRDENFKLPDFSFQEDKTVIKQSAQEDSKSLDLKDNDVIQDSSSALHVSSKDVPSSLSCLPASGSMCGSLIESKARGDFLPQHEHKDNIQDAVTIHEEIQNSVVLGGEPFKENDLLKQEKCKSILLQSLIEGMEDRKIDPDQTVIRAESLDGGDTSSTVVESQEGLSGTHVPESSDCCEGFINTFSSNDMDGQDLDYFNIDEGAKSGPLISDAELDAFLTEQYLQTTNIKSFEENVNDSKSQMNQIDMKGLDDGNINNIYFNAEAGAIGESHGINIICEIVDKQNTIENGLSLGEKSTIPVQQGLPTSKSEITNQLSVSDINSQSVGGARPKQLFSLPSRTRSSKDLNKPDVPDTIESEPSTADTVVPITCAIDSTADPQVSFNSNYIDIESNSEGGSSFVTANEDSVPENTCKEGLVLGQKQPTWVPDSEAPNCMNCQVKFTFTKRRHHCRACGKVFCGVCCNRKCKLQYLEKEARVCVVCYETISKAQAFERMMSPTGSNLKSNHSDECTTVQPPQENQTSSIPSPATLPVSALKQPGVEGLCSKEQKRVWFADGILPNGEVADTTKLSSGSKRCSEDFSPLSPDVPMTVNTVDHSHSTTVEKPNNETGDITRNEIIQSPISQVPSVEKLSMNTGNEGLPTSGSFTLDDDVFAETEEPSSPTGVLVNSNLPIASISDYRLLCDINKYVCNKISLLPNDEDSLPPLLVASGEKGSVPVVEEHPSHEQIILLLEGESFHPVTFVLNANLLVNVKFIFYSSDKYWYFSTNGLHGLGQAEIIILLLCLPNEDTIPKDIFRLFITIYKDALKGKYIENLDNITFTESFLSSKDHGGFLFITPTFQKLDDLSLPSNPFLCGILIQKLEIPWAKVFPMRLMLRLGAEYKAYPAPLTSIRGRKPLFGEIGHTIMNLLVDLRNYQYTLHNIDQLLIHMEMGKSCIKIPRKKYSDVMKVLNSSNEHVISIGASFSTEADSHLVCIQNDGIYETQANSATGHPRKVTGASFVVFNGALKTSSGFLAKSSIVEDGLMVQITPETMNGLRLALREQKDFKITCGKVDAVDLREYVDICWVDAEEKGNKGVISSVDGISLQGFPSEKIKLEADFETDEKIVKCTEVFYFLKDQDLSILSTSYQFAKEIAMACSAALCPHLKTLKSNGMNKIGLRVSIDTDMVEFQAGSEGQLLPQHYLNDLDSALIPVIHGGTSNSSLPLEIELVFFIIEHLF
UniProt Q86SK9: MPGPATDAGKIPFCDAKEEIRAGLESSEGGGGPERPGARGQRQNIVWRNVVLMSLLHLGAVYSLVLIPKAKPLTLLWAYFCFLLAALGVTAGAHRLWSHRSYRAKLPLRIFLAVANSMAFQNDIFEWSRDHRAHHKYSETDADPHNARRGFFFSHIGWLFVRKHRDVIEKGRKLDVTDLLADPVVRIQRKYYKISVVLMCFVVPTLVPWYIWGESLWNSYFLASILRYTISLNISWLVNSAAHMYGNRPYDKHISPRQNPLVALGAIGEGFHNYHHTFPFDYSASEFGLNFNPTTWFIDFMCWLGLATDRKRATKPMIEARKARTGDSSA
UniProt Q86TU7: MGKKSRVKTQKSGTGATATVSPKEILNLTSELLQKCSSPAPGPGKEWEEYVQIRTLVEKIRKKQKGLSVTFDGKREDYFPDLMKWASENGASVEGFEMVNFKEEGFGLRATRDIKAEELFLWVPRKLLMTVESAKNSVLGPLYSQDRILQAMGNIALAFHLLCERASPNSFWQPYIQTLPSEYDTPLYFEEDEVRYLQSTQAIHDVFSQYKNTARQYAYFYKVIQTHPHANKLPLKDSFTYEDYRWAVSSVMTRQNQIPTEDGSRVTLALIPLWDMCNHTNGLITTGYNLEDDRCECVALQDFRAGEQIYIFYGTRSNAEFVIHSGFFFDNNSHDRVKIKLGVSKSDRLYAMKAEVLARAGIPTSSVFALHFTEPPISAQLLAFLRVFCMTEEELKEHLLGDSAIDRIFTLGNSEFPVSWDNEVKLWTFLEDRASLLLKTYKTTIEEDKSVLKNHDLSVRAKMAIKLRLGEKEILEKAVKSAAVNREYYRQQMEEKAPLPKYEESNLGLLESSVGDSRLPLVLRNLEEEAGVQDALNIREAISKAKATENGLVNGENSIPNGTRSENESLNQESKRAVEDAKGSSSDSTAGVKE
UniProt Q8IUF8: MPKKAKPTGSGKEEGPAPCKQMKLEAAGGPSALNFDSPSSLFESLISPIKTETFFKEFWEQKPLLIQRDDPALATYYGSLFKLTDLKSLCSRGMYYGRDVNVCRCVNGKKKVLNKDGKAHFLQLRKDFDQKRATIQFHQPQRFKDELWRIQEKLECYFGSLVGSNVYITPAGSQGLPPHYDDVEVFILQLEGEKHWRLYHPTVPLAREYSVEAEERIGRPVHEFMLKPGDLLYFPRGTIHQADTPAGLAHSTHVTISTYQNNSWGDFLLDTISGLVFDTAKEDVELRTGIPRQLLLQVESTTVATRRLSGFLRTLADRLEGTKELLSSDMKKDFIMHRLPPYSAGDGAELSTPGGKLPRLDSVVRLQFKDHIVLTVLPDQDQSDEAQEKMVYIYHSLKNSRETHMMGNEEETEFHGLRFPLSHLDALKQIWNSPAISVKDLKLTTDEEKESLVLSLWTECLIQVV
UniProt Q6ZSS7: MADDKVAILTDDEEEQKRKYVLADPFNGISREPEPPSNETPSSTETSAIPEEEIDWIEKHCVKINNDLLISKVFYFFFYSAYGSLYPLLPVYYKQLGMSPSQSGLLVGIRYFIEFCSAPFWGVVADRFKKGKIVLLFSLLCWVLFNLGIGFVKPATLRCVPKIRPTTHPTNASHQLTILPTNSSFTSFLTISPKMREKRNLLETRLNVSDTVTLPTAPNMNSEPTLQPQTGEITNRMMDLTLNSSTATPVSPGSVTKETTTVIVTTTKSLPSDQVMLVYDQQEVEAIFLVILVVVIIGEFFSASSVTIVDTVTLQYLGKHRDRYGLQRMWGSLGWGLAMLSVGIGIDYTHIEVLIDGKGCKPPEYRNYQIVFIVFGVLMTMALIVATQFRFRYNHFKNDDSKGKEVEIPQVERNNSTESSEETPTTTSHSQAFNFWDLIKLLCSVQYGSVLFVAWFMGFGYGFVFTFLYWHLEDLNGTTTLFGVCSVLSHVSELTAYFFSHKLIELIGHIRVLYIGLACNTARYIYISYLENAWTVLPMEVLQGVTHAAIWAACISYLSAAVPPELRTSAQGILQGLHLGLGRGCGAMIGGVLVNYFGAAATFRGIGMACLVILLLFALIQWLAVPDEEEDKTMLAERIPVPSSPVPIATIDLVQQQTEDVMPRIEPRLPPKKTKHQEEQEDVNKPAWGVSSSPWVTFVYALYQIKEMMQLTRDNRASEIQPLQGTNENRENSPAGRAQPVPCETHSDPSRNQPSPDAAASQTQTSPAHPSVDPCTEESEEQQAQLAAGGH
UniProt Q7Z7E8: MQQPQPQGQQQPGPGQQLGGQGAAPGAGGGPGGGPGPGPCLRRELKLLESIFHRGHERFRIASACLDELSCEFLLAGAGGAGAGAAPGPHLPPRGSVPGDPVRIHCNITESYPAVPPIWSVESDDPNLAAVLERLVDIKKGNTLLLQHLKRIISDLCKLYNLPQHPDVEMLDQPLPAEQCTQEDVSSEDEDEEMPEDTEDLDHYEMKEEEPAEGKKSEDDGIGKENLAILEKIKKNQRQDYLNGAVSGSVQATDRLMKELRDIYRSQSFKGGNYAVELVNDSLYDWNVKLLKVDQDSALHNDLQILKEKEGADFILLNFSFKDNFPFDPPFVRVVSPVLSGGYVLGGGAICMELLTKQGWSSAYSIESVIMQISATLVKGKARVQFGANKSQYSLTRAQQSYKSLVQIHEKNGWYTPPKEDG
UniProt Q6ZW49, whole entry: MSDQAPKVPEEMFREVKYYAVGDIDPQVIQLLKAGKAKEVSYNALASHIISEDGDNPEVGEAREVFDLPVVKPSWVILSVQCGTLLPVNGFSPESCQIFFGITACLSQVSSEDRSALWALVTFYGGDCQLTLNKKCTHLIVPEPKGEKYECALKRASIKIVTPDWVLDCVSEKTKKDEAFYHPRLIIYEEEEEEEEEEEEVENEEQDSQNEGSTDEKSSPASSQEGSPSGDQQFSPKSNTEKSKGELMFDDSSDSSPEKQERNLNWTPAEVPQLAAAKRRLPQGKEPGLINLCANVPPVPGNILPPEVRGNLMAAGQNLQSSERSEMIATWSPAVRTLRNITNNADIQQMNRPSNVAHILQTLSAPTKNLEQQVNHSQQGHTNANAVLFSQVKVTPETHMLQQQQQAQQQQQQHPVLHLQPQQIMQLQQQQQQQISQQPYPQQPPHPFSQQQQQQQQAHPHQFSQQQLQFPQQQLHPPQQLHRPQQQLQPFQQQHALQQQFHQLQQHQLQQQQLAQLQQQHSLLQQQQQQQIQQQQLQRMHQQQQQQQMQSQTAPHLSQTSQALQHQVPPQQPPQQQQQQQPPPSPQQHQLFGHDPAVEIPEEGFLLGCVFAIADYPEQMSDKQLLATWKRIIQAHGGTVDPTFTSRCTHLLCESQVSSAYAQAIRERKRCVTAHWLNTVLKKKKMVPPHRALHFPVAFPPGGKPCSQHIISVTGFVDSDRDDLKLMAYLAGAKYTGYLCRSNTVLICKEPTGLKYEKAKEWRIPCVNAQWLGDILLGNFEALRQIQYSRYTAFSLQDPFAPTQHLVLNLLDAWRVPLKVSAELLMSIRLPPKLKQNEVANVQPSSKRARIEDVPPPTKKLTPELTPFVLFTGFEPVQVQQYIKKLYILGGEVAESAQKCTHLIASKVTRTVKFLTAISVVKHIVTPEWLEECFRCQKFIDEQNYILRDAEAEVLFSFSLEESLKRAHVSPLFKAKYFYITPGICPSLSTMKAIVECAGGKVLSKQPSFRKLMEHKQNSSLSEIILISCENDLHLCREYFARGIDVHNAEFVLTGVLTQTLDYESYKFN

Compound: Nc1ncnc2c1ncn2[C@@H]1O[C@H](COP(=O)(O)OP(=O)(O)OP(=O)(O)O)[C@@H](O)[C@H]1O [adenosine triphosphate]
Test: NP40-soluble protein abundance relative to vehicle (solubility fold change) (ratio); higher = more soluble protein in presence of ATP
How it was run: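 Data come from three independent experiments in which Dounce-homogenised Jurkat crude lysate was treated at eight concentrations from 0.1 to 10 mM. Treatment ran 10 min at room temperature and then 3 min at 37 °C, after which 0.8% NP40 and benzonase were added for 60 min at 4 °C before ultracentrifugation. The supernatant underwent TMT labelling and LC-MS/MS, and vsn-normalised intensities were expressed as fold change against the detergent-processed vehicle in each replicate.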

Target	NP40-soluble protein abundance (concentration: 1mM)	NP40-soluble protein abundance (concentration: 2mM)	NP40-soluble protein abundance (concentration: 4mM)	NP40-soluble protein abundance (concentration: 6mM)	NP40-soluble protein abundance (concentration: 8mM)	NP40-soluble protein abundance (concentration: 10mM)
WDR59 (UniProt Q6PJI9)	1.13 ± 0.077	1.13 ± 0.04	1.2059 ± 0.0011	1.14 ± 0.018	1.19 ± 0.065	1.28 ± 0.035
UniProt Q71F23	1.07 ± 0.058	1.18 ± 0.097	1.15 ± 0.16	1.21 ± 0.16	1.22 ± 0.21	1.29 ± 0.2
UniProt Q86UE8-2|Q86UE8-3	0.968 ± 0.032	0.969 ± 0.021	0.964 ± 0.014	0.986 ± 0.011	0.9516 ± 0.0083	0.977 ± 0.028
UniProt Q86X55 and related entries	1.02 ± 0.14	1 ± 0.097	0.994 ± 0.11	0.894 ± 0.13	1.02 ± 0.081	0.981 ± 0.051
ZFYVE16 (UniProt Q7Z3T8)	1.01 ± 0.032	0.985 ± 0.028	0.992 ± 0.015	1.019 ± 0.0042	0.929 ± 0.0072	0.961 ± 0.023
LYSMD2 (UniProt Q8IV50)	0.949 ± 0.033	0.9325 ± 0.0077	0.88 ± 0.034	0.88 ± 0.03	0.88 ± 0.046	0.8365 ± 0.0052
RRM2B (UniProt Q7LG56)	1.02 ± 0.064	0.98 ± 0.06	1 ± 0.085	0.906 ± 0.06	1.04 ± 0.052	1.01 ± 0.069
UniProt Q6ZMG9 and related entries	0.935 ± 0.24	0.964 ± 0.11	0.948 ± 0.15	0.936 ± 0.25	0.923 ± 0.16	0.997 ± 0.21
UniProt Q86XN8 and related entries	0.965 ± 0.13	1.02 ± 0.25	0.995 ± 0.091	1.02 ± 0.021	0.9336 ± 0.0022	0.957 ± 0.042
MED13L (UniProt Q71F56)	1.08 ± 0.045	1.04 ± 0.061	1.07 ± 0.11	1.07 ± 0.069	1.05 ± 0.095	1.08 ± 0.09
UniProt Q7Z7F0	0.96 ± 0.027	0.978 ± 0.019	0.977 ± 0.018	0.982 ± 0.029	0.954 ± 0.051	0.951 ± 0.033
UniProt Q86XN7 and related entries	0.854 ± 0.079	0.89 ± 0.046	0.862 ± 0.1	0.868 ± 0.057	0.881 ± 0.021	0.848 ± 0.12
UniProt Q6ZN55 and related entries	1.05 ± 0.16	1.03 ± 0.24	1.01 ± 0.21	0.908 ± 0.11	0.97 ± 0.14	0.94 ± 0.13
UniProt Q86SX3 and related entries	0.986 ± 0.13	1.14 ± 0.065	1.2 ± 0.099	1.28 ± 0.073	1.18 ± 0.054	1.25 ± 0.085
UniProt Q86SK9 and related entries	0.994 ± 0.058	1.12 ± 0.28	1.06 ± 0.028	0.892 ± 0.067	0.93 ± 0.034	0.977 ± 0.048
TTC37 (UniProt Q6PGP7)	1.04 ± 0.13	1.1 ± 0.083	1.19 ± 0.078	1.16 ± 0.11	1.28 ± 0.026	1.3 ± 0.094
SETD3 (UniProt Q86TU7)	1.03 ± 0.059	1.01 ± 0.056	0.989 ± 0.038	0.959 ± 0.087	1.03 ± 0.028	1.03 ± 0.031

An excerpt of these results, field by field.
ZFYVE16 (UniProt Q7Z3T8)
  NP40-soluble protein abundance (concentration: 1mM): 1.01 ± 0.032
  NP40-soluble protein abundance (concentration: 2mM): 0.985 ± 0.028
  NP40-soluble protein abundance (concentration: 4mM): 0.992 ± 0.015
  NP40-soluble protein abundance (concentration: 6mM): 1.019 ± 0.0042
  NP40-soluble protein abundance (concentration: 8mM): 0.929 ± 0.0072
  NP40-soluble protein abundance (concentration: 10mM): 0.961 ± 0.023
LYSMD2 (UniProt Q8IV50)
  NP40-soluble protein abundance (concentration: 1mM): 0.949 ± 0.033
  NP40-soluble protein abundance (concentration: 2mM): 0.9325 ± 0.0077
  NP40-soluble protein abundance (concentration: 4mM): 0.88 ± 0.034
  NP40-soluble protein abundance (concentration: 6mM): 0.88 ± 0.03
  NP40-soluble protein abundance (concentration: 8mM): 0.88 ± 0.046
  NP40-soluble protein abundance (concentration: 10mM): 0.8365 ± 0.0052

More results follow:

Target	NP40-soluble protein abundance (concentration: 1mM)	NP40-soluble protein abundance (concentration: 2mM)	NP40-soluble protein abundance (concentration: 4mM)	NP40-soluble protein abundance (concentration: 6mM)	NP40-soluble protein abundance (concentration: 8mM)	NP40-soluble protein abundance (concentration: 10mM)
HSDL2 (UniProt Q6YN16)	0.957 ± 0.057	0.967 ± 0.044	0.948 ± 0.069	0.9537 ± 0.0024	0.916 ± 0.027	0.963 ± 0.041
UniProt Q8IUF8	1.14 ± 0.074	1.19 ± 0.055	1.2 ± 0.03	1.19 ± 0.085	1.31 ± 0.038	1.27 ± 0.05
UniProt Q7L2H7	0.911 ± 0.034	0.983 ± 0.06	1.02 ± 0.041	0.937 ± 0.12	1.09 ± 0.078	1.25 ± 0.039
ASRGL1 (UniProt Q7L266)	1.07 ± 0.011	1.051 ± 0.0044	1.04 ± 0.064	1.05 ± 0.026	0.981 ± 0.03	0.977 ± 0.03
UniProt Q7Z3B4 and related entries	0.964 ± 0.0057	0.969 ± 0.012	0.972 ± 0.028	0.943 ± 0.067	0.999 ± 0.04	1.03 ± 0.027
MFSD6 (UniProt Q6ZSS7)	0.873 ± 0.044	0.91 ± 0.071	0.882 ± 0.15	0.783 ± 0.13	0.805 ± 0.13	0.866 ± 0.16
UniProt Q8IUX7	0.778 ± 0.35	0.762 ± 0.34	0.785 ± 0.37	0.8 ± 0.41	0.769 ± 0.39	0.81 ± 0.39
UBE2Q1 (UniProt Q7Z7E8)	0.959 ± 0.045	0.972 ± 0.036	0.934 ± 0.037	0.955 ± 0.054	0.932 ± 0.05	0.964 ± 0.019
UniProt Q86TI0 and related entries	1.033 ± 0.0036	1.03 ± 0.026	1.025 ± 0.0096	1.024 ± 0.0068	1.03 ± 0.015	1.02 ± 0.024
PAXIP1 (UniProt Q6ZW49)	0.989 ± 0.04	0.961 ± 0.051	0.995 ± 0.027	0.915 ± 0.013	0.969 ± 0.033	1.06 ± 0.089
MICAL3 (UniProt Q7RTP6)	0.981 ± 0.08	0.966 ± 0.014	0.998 ± 0.046	0.921 ± 0.025	0.954 ± 0.068	0.916 ± 0.035
TRIM65 (UniProt Q6PJ69)	0.995 ± 0.051	0.981 ± 0.037	0.97 ± 0.043	0.963 ± 0.053	1 ± 0.038	0.986 ± 0.035
UniProt Q7L099-2|Q7L099-3|Q7L099-4	0.949 ± 0.024	0.983 ± 0.028	0.9414 ± 0.0072	1.01 ± 0.033	0.92 ± 0.033	0.938 ± 0.029
UniProt Q86WV1 and related entries	0.967 ± 0.069	0.987 ± 0.074	0.988 ± 0.044	0.975 ± 0.053	0.941 ± 0.053	0.934 ± 0.044
NFXL1 (UniProt Q6ZNB6)	1.03 ± 0.061	1.07 ± 0.04	1.1 ± 0.096	1.15 ± 0.047	1.22 ± 0.08	1.12 ± 0.028
DNMBP (UniProt Q6XZF7)	0.984 ± 0.078	1 ± 0.065	1.02 ± 0.06	1.03 ± 0.064	0.982 ± 0.074	0.963 ± 0.08
UniProt Q7Z2Z1 and related entries	1.07 ± 0.055	1.198 ± 0.0025	1.2 ± 0.1	1.25 ± 0.26	1.12 ± 0.064	1.19 ± 0.094
